The source of these data is PMC6946706.

This assay concerns the target FLAG-RepID FL (U2OS stable) (UniProt Q8WWQ0). Put plainly: affinity purification with mass spectrometry; anti-FLAG IP from a mixture of soluble nuclear and chromatin-bound fractions of U2OS cells stably expressing FLAG-RepID; IgG as negative control; beads washed three times with PBS.

These are yes or no findings as the source states them, for the method shown. Binding seen in cells or lysates may run through a third protein. These calls come from enrichment with a bait or labelling near it, and not all partners need be listed.

For “BUB3 (endogenous) (from UniProt O43684 1-328)”, the binding entry is listed as “binds”.
